A short description of this series: peptide made by a vendor (Fmoc solid-phase peptide synthesis). The following applies: whole synthesis.

Chains of the proteins cited; added tags and fusions are not shown. Lines headed by an entry give the natural chain unless they say otherwise; changes in a name come on top.
UniProt P02808: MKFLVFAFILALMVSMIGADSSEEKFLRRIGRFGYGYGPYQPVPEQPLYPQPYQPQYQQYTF

The source of these data is US20090074680A1 (QUEEN MARY & WESTFIELD COLLEGE, priority 2005, published 2009).

On to “DpSpSEEKFLRRIGRFGYGYGPY (DSSEEKFLRRIGRFGYGYGPY; Statherin phosphoserines at positions 2 and 3; UniProt P02808 20-40, looked up, fragment)”, for which the “purity (crude or final not stated)” value is given as greater than 95%.
